Test results: the supplement of paper PMC12542422
Counter-ions that a name gives are not always drawn. ± gives the standard deviation of the averaged measurements. Some of the results follow. These are raw signals, not scaled to a control.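 Across three biological replicates, HeLa cells were imaged for ribosome assembly using ENP1 staining (export block present or absent) or inducible tagged ribosomal protein reporters. Machine learning classified each cell's signal localization relative to DMSO controls. Hits exceeded the DMSO false-positive mean by five standard deviations and were then visually confirmed.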

Test system: HeLa RPS2-YFP reporter
Assay: fraction of reporter-positive cells with nuclear (nucleolar or nucleolar/nucleoplasmic) RPS2-YFP (MainHitrate); higher = more cells with nucleolar/nuclear readout signal (for ENP1 -LMB: less RNAPI inhibition; for +LMB ENP1 and RP reporters: stronger nuclear/nucleolar retention, i.e. ribosome biogenesis defect)
Conditions: concentration: 1 µM; treatment time: 6 h

Compound	fraction of reporter-positive cells with nuclear
CN1[C@@H]2CC[C@H]1C[C@@H](OC(=O)[C@H](CO)c1ccccc1)C2 [Hyoscyamine (Daturine)]	0.134 ± 0.11
CC[N+]1(C)CCCC(OC(=O)C(O)(c2ccccc2)c2ccccc2)C1 (stereo unspecified) [Pipenzolate Bromide]	0.19 ± 0.18
CC[C@H]1CN2CCc3cc(OC)c(OC)cc3[C@@H]2C[C@@H]1C[C@H]1NCCc2cc(OC)c(OC)cc21 [Emetine]	0.0212 ± 0.0078
COc1cc2c(cc1OC)[C@@]13CCN4CC5=CCO[C@H]6CC(=O)N2[C@H]1[C@H]6[C@H]5C[C@H]43 [Brucine]	0.197 ± 0.16
CCCN1C[C@H](CSC)C[C@@H]2c3cccc4[nH]cc(c34)C[C@H]21 [Pergolide mesylate]	0.119 ± 0.1
C#C[C@]1(O)C=C[C@H]2[C@@H]3CCC4=CC(=O)CC[C@@H]4[C@H]3CC[C@@]21CC [Gestodene]	0.137 ± 0.11
C/C=C(\C)C(=O)N[C@@H](c1ccccc1)[C@@H](O)C(=O)O[C@H]1C[C@@]2(O)[C@@H](OC(=O)c3ccccc3)[C@@H]3[C@]4(OC(C)=O)CO[C@@H]4C[C@H](O)[C@@]3(C)C(=O)[C@H](OC(C)=O)C(=C1C)C2(C)C [Cephalomannine]	0.183 ± 0.11
CC(C)N(CCC(C(N)=O)(c1ccccc1)c1ccccn1)C(C)C (stereo unspecified) [Disopyramide Phosphate]	0.138 ± 0.16
Cc1cccc(C)c1NC1=NCCCS1 [Xylazine HCl]	0.115 ± 0.058
Cc1cc(O)ccc1Cl [Chlorocresol]	0.133 ± 0.092
C=CC[C@]1(O)CC[C@H]2[C@@H]3CCC4=CC(=O)CCC4=C3C=C[C@@]21C [Altrenogest]	0.115 ± 0.099
C[N+](C)(C)CCCCCCCCCC[N+](C)(C)C [Decamethonium bromide]	0.119 ± 0.12
C[C@]12CC[C@H](O)CC1=CC[C@@H]1[C@@H]2CC[C@]2(C)C(=O)CC[C@@H]12 [Dehydroepiandrosterone (DHEA)]	0.107 ± 0.087
NCC1(CC(=O)O)CCCCC1 [Gabapentin Hydrochloride]	0.121 ± 0.074
CC(C)=CC1C(C(=O)OCc2cccc(Oc3ccccc3)c2)C1(C)C (stereo unspecified) [Phenothrin]	0.0707 ± 0.054
C#C[C@]1(O)CC[C@H]2[C@@H]3CCC4=CC(=O)CC[C@]4(C)[C@H]3CC[C@@]21C [Ethisterone]	0.111 ± 0.11
C[C@]12CC[C@H]3[C@@H](CC[C@@]45O[C@@H]4C(O)=C(C#N)C[C@]35C)[C@@H]1CC[C@@H]2O [Trilostane]	0.134 ± 0.082
CN(C)C(=O)Oc1ccc[n+](C)c1 [Pyridostigmine Bromide (Mestinon)]	0.0904 ± 0.051
COc1ccc(OC)c(C(O)C(C)N)c1 (stereo unspecified) [Methoxamine HCl]	0.167 ± 0.16
C=CCN1CC[C@]23c4c5ccc(O)c4O[C@H]2C(=O)CC[C@@]3(O)[C@H]1C5 [Naloxone HCl]	0.12 ± 0.081
CCC1(c2cccc(O)c2)CCCCN(C)C1 (stereo unspecified) [Meptazinol HCl]	0.141 ± 0.072
CN1CCc2cc3c(cc2C1O)OCO3 (stereo unspecified) [Hydrastinine HCl]	0.17 ± 0.12
OC(c1ccccc1)(c1ccccc1)C1CCNCC1 [Azacyclonol]	0.121 ± 0.096
CN1C(=O)CCS(=O)(=O)C1c1ccc(Cl)cc1 (stereo unspecified) [Chlormezanone (Trancopal)]	0.117 ± 0.043
C[C@]12C/C(=C/O)C(=O)C[C@@H]1CC[C@@H]1[C@@H]2CC[C@@]2(C)[C@H]1CC[C@]2(C)O [Oxymetholone]	0.116 ± 0.088
CN1[C@@H]2C[C@@H](OC(=O)[C@H](CO)c3ccccc3)C[C@H]1[C@@H]1O[C@@H]12 [Scopolamine hydrobromide]	0.136 ± 0.064
CC(O)(CS(=O)(=O)c1ccc(F)cc1)C(=O)Nc1ccc(C#N)c(C(F)(F)F)c1 (stereo unspecified) [Bicalutamide (Casodex)]	0.119 ± 0.067
C[N+]1(C)CCCC(OC(=O)C(O)(c2ccccc2)c2ccccc2)C1 (stereo unspecified) [Mepenzolate Bromide]	0.227 ± 0.2

Test system: HeLa RPL29-GFP reporter
Assay: fraction of reporter-positive cells with nuclear (nucleolar or nucleolar/nucleoplasmic) RPL29-GFP (MainHitrate); higher = more cells with nucleolar/nuclear readout signal (for ENP1 -LMB: less RNAPI inhibition; for +LMB ENP1 and RP reporters: stronger nuclear/nucleolar retention, i.e. ribosome biogenesis defect)
Conditions: concentration: 1 µM; treatment time: 6 h

Compound	fraction of reporter-positive cells with nuclear
CN1[C@@H]2CC[C@H]1C[C@@H](OC(=O)[C@H](CO)c1ccccc1)C2 [Hyoscyamine (Daturine)]	0.214 ± 0.085
CC[N+]1(C)CCCC(OC(=O)C(O)(c2ccccc2)c2ccccc2)C1 (stereo unspecified) [Pipenzolate Bromide]	0.273 ± 0.26
CC[C@H]1CN2CCc3cc(OC)c(OC)cc3[C@@H]2C[C@@H]1C[C@H]1NCCc2cc(OC)c(OC)cc21 [Emetine]	0.419 ± 0.24
COc1cc2c(cc1OC)[C@@]13CCN4CC5=CCO[C@H]6CC(=O)N2[C@H]1[C@H]6[C@H]5C[C@H]43 [Brucine]	0.29 ± 0.25
CCCN1C[C@H](CSC)C[C@@H]2c3cccc4[nH]cc(c34)C[C@H]21 [Pergolide mesylate]	0.202 ± 0.066
C#C[C@]1(O)C=C[C@H]2[C@@H]3CCC4=CC(=O)CC[C@@H]4[C@H]3CC[C@@]21CC [Gestodene]	0.218 ± 0.055
C/C=C(\C)C(=O)N[C@@H](c1ccccc1)[C@@H](O)C(=O)O[C@H]1C[C@@]2(O)[C@@H](OC(=O)c3ccccc3)[C@@H]3[C@]4(OC(C)=O)CO[C@@H]4C[C@H](O)[C@@]3(C)C(=O)[C@H](OC(C)=O)C(=C1C)C2(C)C [Cephalomannine]	0.287 ± 0.063
CC(C)N(CCC(C(N)=O)(c1ccccc1)c1ccccn1)C(C)C (stereo unspecified) [Disopyramide Phosphate]	0.262 ± 0.27
Cc1cccc(C)c1NC1=NCCCS1 [Xylazine HCl]	0.223 ± 0.094
Cc1cc(O)ccc1Cl [Chlorocresol]	0.231 ± 0.062
C=CC[C@]1(O)CC[C@H]2[C@@H]3CCC4=CC(=O)CCC4=C3C=C[C@@]21C [Altrenogest]	0.206 ± 0.096
C[N+](C)(C)CCCCCCCCCC[N+](C)(C)C [Decamethonium bromide]	0.205 ± 0.072
C[C@]12CC[C@H](O)CC1=CC[C@@H]1[C@@H]2CC[C@]2(C)C(=O)CC[C@@H]12 [Dehydroepiandrosterone (DHEA)]	0.226 ± 0.07
NCC1(CC(=O)O)CCCCC1 [Gabapentin Hydrochloride]	0.19 ± 0.058
CC(C)=CC1C(C(=O)OCc2cccc(Oc3ccccc3)c2)C1(C)C (stereo unspecified) [Phenothrin]	0.296 ± 0.24
C#C[C@]1(O)CC[C@H]2[C@@H]3CCC4=CC(=O)CC[C@]4(C)[C@H]3CC[C@@]21C [Ethisterone]	0.219 ± 0.056
C[C@]12CC[C@H]3[C@@H](CC[C@@]45O[C@@H]4C(O)=C(C#N)C[C@]35C)[C@@H]1CC[C@@H]2O [Trilostane]	0.197 ± 0.079
CN(C)C(=O)Oc1ccc[n+](C)c1 [Pyridostigmine Bromide (Mestinon)]	0.199 ± 0.074
COc1ccc(OC)c(C(O)C(C)N)c1 (stereo unspecified) [Methoxamine HCl]	0.299 ± 0.21
C=CCN1CC[C@]23c4c5ccc(O)c4O[C@H]2C(=O)CC[C@@]3(O)[C@H]1C5 [Naloxone HCl]	0.226 ± 0.068
CCC1(c2cccc(O)c2)CCCCN(C)C1 (stereo unspecified) [Meptazinol HCl]	0.205 ± 0.072
CN1CCc2cc3c(cc2C1O)OCO3 (stereo unspecified) [Hydrastinine HCl]	0.263 ± 0.18
OC(c1ccccc1)(c1ccccc1)C1CCNCC1 [Azacyclonol]	0.245 ± 0.089
CN1C(=O)CCS(=O)(=O)C1c1ccc(Cl)cc1 (stereo unspecified) [Chlormezanone (Trancopal)]	0.213 ± 0.054
C[C@]12C/C(=C/O)C(=O)C[C@@H]1CC[C@@H]1[C@@H]2CC[C@@]2(C)[C@H]1CC[C@]2(C)O [Oxymetholone]	0.235 ± 0.048
CN1[C@@H]2C[C@@H](OC(=O)[C@H](CO)c3ccccc3)C[C@H]1[C@@H]1O[C@@H]12 [Scopolamine hydrobromide]	0.24 ± 0.068
CC(O)(CS(=O)(=O)c1ccc(F)cc1)C(=O)Nc1ccc(C#N)c(C(F)(F)F)c1 (stereo unspecified) [Bicalutamide (Casodex)]	0.192 ± 0.057
C[N+]1(C)CCCC(OC(=O)C(O)(c2ccccc2)c2ccccc2)C1 (stereo unspecified) [Mepenzolate Bromide]	0.309 ± 0.3
